Measurements as given in patent US20060063747A1, “Paroxetine cholate or cholic acid derivative salts, and composition comprising paroxetine and cholic acid or derivative thereof” (priority 2004, published 2006).
Counter-ions that a name gives are not always drawn.

Experiment: Taste comparison of solid drug in the mouth by three panelists
Conditions: for Rejection by the panelists: 5 mg solid drug in the mouth; for Initial taste (within one min.) / Later taste (after one min.): 5 mg solid drug, no excipient, water or solvent; for Initial taste (within one min.): in the mouth; for Later taste (after one min.): in the mouth up to 10 minutes

Molecule	Rejection by the panelists	Initial taste (within one min.)	Later taste (after one min.)
Fc1ccc([C@@H]2CCNC[C@H]2COc2ccc3c(c2)OCO3)cc1 [Paroxetine HCl, paroxetine hydrochloride]	strong rejection	Very bitter taste	Irritating pain caused
Fc1ccc([C@@H]2CCNC[C@H]2COc2ccc3c(c2)OCO3)cc1.O=C(O)[C@H]1OC(O)[C@H](O)[C@@H](O)[C@@H]1O [Paroxetine glucuronate]	–	Bitter taste	Irritating pain caused
C[C@H](CCC(=O)NCC(=O)O)[C@H]1CC[C@H]2[C@@H]3[C@H](O)C[C@@H]4C[C@H](O)CC[C@]4(C)[C@H]3C[C@H](O)[C@]12C.Fc1ccc([C@@H]2CCNC[C@H]2COc2ccc3c(c2)OCO3)cc1 [Paroxetine glycocholate, paroxetine glycocholate]	no rejection	No taste	No pain
Fc1ccc([C@@H]2CCNC[C@H]2COc2ccc3c(c2)OCO3)cc1.O=S(=O)(O)c1ccc2ccccc2c1 [Paroxetine napsylate]	–	Very bitter taste	Irritating pain caused
Fc1ccc([C@@H]2CCNC[C@H]2COc2ccc3c(c2)OCO3)cc1.Fc1ccc([C@@H]2CCNC[C@H]2COc2ccc3c(c2)OCO3)cc1.O.O=C(O)C(O)C(O)C(=O)O.O=C(O)C(O)C(O)C(=O)O [Paroxetine tartarate]	–	Very bitter taste	Irritating pain caused
paroxetine methanesulfonate	strong rejection	Very bitter taste	Irritating pain caused
